# Assay results taken from patent US20020052365A1, “Selective anxiolytic therapeutic agents” (priority 2000, published 2002).
# Assays:
# [1] = system: diazepam-insensitive [3H]Ro15-4513 binding sites in α2(H101R) mice; experiment: [3H]Ro15-4513 binding to diazepam-insensitive sites, α2(H101R) mouse brain
# [2] = system: diazepam-insensitive [3H]Ro15-4513 binding sites in α3(H126R) mice; experiment: [3H]Ro15-4513 binding to diazepam-insensitive sites, α3(H126R) mouse brain
# [3] = system: diazepam-insensitive [3H]Ro15-4513 binding sites (α4 and α6 GABAA receptors); experiment: [3H]Ro15-4513 binding to diazepam-insensitive sites, wild type mouse brain; conditions: wild type mice
smiles,measurement,setting,value
CCOC(=O)c1ncn2c1CN(C)C(=O)c1cc(N=[N+]=[N-])ccc1-2 [Ro15-4513],number of diazepam-insensitive [3H]Ro15-4513 binding sites,[1],17%
same,Bmax of diazepam-insensitive [3H]Ro15-4513 binding,[1]; n=3,0.26±0.01 pmol/mg protein
same,number of diazepam-insensitive [3H]Ro15-4513 binding sites,[2],11%
same,number of diazepam-insensitive [3H]Ro15-4513 binding sites,[3],5%
